Data: US20170049847A1
No constants are given. Whether binding was seen depends on the method and setting. Some binding calls cover weakened binding; strength is not graded here.

The chains behind the UniProt entries cited, without tags or fusion partners. Residues count along the entry.
UniProt P08581, residues 25-932: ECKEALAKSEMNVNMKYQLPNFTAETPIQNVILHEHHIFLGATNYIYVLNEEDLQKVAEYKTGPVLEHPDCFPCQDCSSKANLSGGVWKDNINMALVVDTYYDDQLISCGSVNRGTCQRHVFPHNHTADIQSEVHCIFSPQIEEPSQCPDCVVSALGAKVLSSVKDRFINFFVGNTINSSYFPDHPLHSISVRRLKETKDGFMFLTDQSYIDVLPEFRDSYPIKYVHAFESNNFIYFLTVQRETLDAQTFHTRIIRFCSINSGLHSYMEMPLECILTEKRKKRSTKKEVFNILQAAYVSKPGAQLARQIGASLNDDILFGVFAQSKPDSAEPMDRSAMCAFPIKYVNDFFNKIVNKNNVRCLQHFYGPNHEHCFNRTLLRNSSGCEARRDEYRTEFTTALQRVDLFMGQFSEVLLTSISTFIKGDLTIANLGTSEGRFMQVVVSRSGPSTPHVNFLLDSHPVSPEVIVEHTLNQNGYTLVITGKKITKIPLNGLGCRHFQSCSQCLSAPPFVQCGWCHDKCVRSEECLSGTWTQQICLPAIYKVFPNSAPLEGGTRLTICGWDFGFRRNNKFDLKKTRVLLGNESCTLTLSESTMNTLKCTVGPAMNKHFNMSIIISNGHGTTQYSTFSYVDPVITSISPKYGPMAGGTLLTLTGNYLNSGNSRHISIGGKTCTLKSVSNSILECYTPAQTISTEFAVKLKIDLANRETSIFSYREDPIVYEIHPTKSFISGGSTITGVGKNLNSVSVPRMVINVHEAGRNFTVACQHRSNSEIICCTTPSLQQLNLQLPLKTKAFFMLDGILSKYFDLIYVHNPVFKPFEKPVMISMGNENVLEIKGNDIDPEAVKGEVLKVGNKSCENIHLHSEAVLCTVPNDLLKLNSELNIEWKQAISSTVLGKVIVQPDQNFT

T1: BMPR-IB (R&D Systems) (UniProt O00238)
T1 sequence (looked up): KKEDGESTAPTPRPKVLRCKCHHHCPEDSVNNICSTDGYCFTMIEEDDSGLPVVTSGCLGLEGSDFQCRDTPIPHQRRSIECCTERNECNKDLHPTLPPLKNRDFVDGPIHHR


How the values were obtained:
HGFR (R&D Systems) [1] = target: HGFR (R&D Systems) (UniProt P08581); assay: ELISA of Example 2-1, told again in Example 2-2
HGFR (R&D Systems) [2] = target: HGFR (R&D Systems) (UniProt P08581); assay: ELISA, peptide coated on plate, soluble HGFR added, anti-human IgG-HRP, OD 450 nm
BMPR-IB (R&D Systems) [3] = target: T1, BMPR-IB (R&D Systems); assay: ELISA of Example 2-3, told again in Example 2-4
BMPR-IB (R&D Systems) [4] = target: T1, BMPR-IB (R&D Systems); assay: ELISA, peptide coated on plate, soluble BMPR-IB added, anti-human IgG-HRP, OD 450 nm

| Binder | binding (HGFR (R&D Systems) [1]) | binding (HGFR (R&D Systems) [2]) | binding (BMPR-IB (R&D Systems) [3]) | binding (BMPR-IB (R&D Systems) [4]) |
| --- | --- | --- | --- | --- |
| ACRSAIGRPC [peptide of SEQ ID NO: 1] | binds | binds | – | – |
| ACDGRTQALC [peptide of SEQ ID NO: 3] | binds | binds | – | – |
| ACFTRTSHAC [peptide of SEQ ID NO: 2] | – | – | binds | binds |
